## Primary screen of a compound library

Chains of the proteins cited; added tags and fusions are not shown. Residues count along the entry.
UniProt P9WNZ1, whole entry: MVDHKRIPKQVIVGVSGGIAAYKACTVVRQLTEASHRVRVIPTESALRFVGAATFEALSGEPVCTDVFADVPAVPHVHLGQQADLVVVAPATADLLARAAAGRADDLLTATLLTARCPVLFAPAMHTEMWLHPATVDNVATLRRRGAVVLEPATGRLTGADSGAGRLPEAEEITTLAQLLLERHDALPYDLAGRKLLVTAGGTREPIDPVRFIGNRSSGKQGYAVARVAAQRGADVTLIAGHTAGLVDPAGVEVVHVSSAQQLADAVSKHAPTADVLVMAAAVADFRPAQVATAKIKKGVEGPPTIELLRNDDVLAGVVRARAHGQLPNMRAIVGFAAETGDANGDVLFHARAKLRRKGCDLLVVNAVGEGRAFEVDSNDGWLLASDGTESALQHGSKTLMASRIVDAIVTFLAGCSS
UniProt I6X8D2, whole entry: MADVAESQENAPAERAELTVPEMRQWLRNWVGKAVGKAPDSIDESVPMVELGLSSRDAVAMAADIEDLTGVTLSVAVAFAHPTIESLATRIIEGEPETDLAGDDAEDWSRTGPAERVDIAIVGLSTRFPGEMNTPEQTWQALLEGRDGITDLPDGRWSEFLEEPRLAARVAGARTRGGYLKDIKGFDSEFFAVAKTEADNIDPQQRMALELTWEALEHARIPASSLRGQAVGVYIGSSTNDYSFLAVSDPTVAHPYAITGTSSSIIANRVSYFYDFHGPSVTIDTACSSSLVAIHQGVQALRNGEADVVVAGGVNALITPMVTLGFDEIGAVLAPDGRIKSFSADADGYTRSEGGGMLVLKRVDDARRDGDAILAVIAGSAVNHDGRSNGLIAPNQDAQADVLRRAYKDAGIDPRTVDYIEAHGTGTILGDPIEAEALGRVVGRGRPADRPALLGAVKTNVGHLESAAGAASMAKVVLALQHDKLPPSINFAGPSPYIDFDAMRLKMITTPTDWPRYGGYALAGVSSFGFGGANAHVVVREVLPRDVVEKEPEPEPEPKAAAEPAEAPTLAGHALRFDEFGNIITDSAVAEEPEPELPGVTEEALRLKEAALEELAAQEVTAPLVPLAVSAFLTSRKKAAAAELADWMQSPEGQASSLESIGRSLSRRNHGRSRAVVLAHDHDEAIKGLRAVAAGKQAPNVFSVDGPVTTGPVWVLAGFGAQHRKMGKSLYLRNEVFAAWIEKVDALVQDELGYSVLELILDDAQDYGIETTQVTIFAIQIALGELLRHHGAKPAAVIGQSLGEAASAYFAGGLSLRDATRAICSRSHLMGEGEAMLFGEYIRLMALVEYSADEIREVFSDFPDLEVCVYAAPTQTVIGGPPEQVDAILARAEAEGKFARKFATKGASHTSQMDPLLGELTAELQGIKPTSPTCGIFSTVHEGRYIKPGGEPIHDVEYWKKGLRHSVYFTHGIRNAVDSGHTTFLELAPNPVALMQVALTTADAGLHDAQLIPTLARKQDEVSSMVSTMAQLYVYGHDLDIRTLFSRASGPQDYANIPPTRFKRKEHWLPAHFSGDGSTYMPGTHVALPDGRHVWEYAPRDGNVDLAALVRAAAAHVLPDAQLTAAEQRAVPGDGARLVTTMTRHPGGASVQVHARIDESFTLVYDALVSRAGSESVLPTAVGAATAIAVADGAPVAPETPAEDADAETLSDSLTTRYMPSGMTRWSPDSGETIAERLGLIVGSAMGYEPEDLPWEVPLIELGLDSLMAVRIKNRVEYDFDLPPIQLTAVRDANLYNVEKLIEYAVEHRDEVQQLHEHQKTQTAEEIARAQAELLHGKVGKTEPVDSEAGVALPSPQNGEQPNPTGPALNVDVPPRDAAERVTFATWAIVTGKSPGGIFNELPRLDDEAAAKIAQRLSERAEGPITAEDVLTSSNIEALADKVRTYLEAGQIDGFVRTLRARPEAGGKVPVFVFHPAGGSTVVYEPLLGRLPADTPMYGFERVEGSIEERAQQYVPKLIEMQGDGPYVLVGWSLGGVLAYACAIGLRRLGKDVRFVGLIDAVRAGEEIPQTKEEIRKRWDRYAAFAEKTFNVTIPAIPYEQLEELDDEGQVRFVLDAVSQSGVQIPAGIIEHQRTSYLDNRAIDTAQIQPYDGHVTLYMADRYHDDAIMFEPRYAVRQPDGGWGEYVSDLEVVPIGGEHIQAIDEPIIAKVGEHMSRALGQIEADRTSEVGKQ
UniProt P9WPC5, whole entry: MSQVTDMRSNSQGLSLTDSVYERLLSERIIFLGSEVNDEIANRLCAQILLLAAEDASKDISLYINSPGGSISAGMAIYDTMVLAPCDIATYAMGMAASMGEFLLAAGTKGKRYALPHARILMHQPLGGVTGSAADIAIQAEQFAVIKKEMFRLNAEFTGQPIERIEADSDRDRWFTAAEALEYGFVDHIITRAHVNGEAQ
UniProt P9WPC3, whole entry partner: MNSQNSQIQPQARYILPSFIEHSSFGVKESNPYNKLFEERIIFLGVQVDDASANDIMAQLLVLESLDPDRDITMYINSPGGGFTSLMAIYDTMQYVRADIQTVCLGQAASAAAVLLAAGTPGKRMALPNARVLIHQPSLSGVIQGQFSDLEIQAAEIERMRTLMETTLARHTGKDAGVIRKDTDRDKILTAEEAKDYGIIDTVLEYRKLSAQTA
UniProt A4I591, 1-473: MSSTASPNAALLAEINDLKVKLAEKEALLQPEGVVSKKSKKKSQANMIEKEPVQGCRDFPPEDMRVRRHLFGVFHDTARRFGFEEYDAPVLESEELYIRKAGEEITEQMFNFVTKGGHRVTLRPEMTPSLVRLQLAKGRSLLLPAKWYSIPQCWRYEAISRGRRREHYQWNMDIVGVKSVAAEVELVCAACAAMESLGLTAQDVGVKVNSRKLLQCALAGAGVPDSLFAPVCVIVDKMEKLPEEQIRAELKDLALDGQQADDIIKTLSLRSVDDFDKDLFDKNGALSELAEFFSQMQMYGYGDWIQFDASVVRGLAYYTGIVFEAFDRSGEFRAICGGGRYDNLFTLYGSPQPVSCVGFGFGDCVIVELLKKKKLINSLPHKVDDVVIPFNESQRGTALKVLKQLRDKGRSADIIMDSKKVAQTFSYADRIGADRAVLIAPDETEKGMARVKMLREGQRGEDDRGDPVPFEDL
UniProt P9WFT3, whole entry: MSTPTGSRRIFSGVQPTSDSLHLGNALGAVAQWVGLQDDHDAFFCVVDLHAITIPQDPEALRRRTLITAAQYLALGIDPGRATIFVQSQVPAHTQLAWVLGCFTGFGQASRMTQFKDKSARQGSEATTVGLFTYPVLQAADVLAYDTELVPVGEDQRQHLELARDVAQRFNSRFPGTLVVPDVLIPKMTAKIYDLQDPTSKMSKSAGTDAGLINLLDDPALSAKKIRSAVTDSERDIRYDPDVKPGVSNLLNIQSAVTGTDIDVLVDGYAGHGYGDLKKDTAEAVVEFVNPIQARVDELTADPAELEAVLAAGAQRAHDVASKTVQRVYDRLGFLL

CoaBC: 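Enzyme assay of CoaBC with a phosphate dye (Biomol Green) read at 650 nm. Target: Coenzyme A biosynthesis protein CoaBC, Mycobacterium tuberculosis (UniProt P9WNZ1). Compounds at 30 µM. Direction is inferred from only a few compounds that gave an IC50; most scored high, so higher reads as stronger inhibition. Most strong results did not repeat in a second test. Size under these conditions: about 67,000 compounds, about 40 of them at 50% or above in at least one test.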
Pks13 thioesterase: 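Polyketide synthase Pks13, Mycobacterium tuberculosis (UniProt I6X8D2). Enzyme assay of the thioesterase domain of polyketide synthase 13; the read-out is not stated. Concentration: 30 µM. Higher reads as stronger inhibition (inferred from which compounds were picked for retests). Size under these conditions: about 67,000 compounds, about 300 of them at 50% or above in at least one test.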
ClpP1P2: 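Protease assay of ClpP1P2, read by the AMC dye that it sets free. Target: ClpP1P2, Mycobacterium tuberculosis (UniProt P9WPC5 and UniProt P9WPC3). Compounds at 50 µM. Direction is inferred from only a few compounds that gave an IC50; most scored high, so higher reads as stronger inhibition. Most other retested compounds had strongly negative values. Size under these conditions: about 69,000 compounds, about 10 of them at 50% or above in at least one test.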
LiHisRS: 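Enzyme assay of histidyl-tRNA synthetase; the read-out is not stated. Target: Histidine-tRNA ligase, Leishmania infantum (UniProt A4I591). Concentration: 30 µM. The record gives no direction; compounds that gave an IC50 in retests scored well above the rest, so higher reads as stronger inhibition. The assay is labelled LdHisRS but filed under L. infantum. Of about 69,000 compounds tested this way, about 410 (0.6%) reached 50% or more in at least one test.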
MtTrpRS: 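Tryptophan-tRNA ligase, Mycobacterium tuberculosis (UniProt P9WFT3). Enzyme assay of tryptophanyl-tRNA synthetase; the read-out is not stated. Compounds at 10 µM. Higher most likely means stronger inhibition; the record gives no direction and few retests gave an IC50. Of about 65,000 compounds tested this way, about 64 (0.098%) reached 50% or more in at least one test.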

The filed quantity is “Percent Effect” (%).
The controls that fix the scale are not given in the record; negative values are as filed.
This is an unselected part of the compounds tested.
Two or more numbers in one place are separate tests of the same structure; such repeats can differ widely.
A dash means the value is not listed here; it may have been measured.

structure	CoaBC	Pks13 thioesterase	ClpP1P2	LiHisRS	MtTrpRS
NC(=O)c1cnn2c1NCC(CNCCc1cccs1)C2 (stereo not shown)	-0.3802%	-4.166%	-39.18%	17.86%	-1.569%
CC1CN(Cc2ccccc2Cn2cccn2)CCN1C (stereo not shown)	3.271%	4.557%	-16.4%	9.211%	-4.843%
O=C([C@@H]1Cc2[nH]cnc2CN1Cc1cc2ccccc2o1)N1CCCC1	10.16%	27.38%	1.704%	5.556%	2.786%
c1ccc(-c2nc(CN3CCn4c(nnc4C4CC4)C3)cs2)cc1	-1.053%	14.25%	-20.59%	16.98%	-2.968%
CN(CC(=O)NC(c1ccc(F)cc1)C(F)(F)F)S(C)(=O)=O (stereo not shown)	-5.714%	-15.38%	3.82%	15.87%	3.138%
COc1cc(N2C[C@H]3CN(CC(=O)N(C)C)C(=O)[C@H]3C2)ncn1	-	29.16%	21.04%	3.448%	-1.187%
CC(C)N1CCCCC1c1cc(CO)[nH]n1 (stereo not shown)	-7.359%	-	-10.07%	7.246%	-6.911%
COC[C@H]1CNC(=O)[C@@H]2CCN(Cc3ccc(F)cc3)CC[C@H]12	5.863%	-30.58%	-5.115%	22.86%	-3.906%
OCCn1cc(CN2CCN(CCOCC(F)(F)F)CC2)cn1	6.071%	-	11.46%	15.38%	-5.345%
Cc1cnn(CC2CCCN2C(=O)c2cccc(S(C)(=O)=O)c2)c1 (stereo not shown)	20.39% & -5.67%	-1.379%	-11.56%	-3.571%	-5.13%
CCc1cc(C(=O)N2CCc3nc4c(C)csc4c(=O)n3CC2)on1	-1.942%	5.608%	-6.278%	21.74%	-
O=C(CN1CCOc2ccccc2C1)NCc1cc2n(n1)CCCNC2	-7.589%	-0.6572%	4.451%	9.375%	-3.612%
CS(=O)(=O)c1snnc1C1CCN(Cc2cccc(O)c2)CC1	0.7264%	-1.182%	-3.792%	16.49%	-
COc1cccc(C2CC(=O)Nc3c2c(=O)n(C)c2ncnn32)c1 (stereo not shown)	-0.7895%	-47.08%	-0.806%	1.379%	15.82%
COc1ccc(O[C@H]2COCCN(Cc3cccc4c3OCO4)C2)cc1	15.52%	19.19%	-11.92%	-10.81%	0.9916%
OC1(c2ccc(F)cc2)CCN(Cc2ccccc2N2CCCC2)CC1	-21.47%	-22.01%	-18.86%	17.02%	8.683%
CCCN(CCN(C)C)C(=O)Cc1cn2ccsc2n1	-9.13%	-27.16%	11.65%	17.28%	2.601%
CN1Cc2c(C(=O)Nc3cccnc3)ncn2-c2ccccc2S1(=O)=O	5.806%	-12.92%	0.1359%	7.619%	2.056%
CS(=O)(=O)N1C[C@@H](Oc2ccccn2)[C@H]2OCCC[C@H]21	8.632%	-26.89%	0.1865%	6.195%	-0.7171%
CC1CC(=O)c2cc(C(=O)N3CCN(C)CC3)c(=O)[nH]c2C1 (stereo not shown)	5.443%	10.64%	-5.42%	20%	3.797%
COCC1CC2(CCN(Cc3ccco3)CC2)CN1C(C)C (stereo not shown)	0.4202%	-21.27%	8.741%	16.36%	-1.569%
CC(C)C(O)CNC(=O)CCCc1ccccn1 (stereo not shown)	-5.897%	-11.2%	-2.307%	12.9%	1.923%
Cc1cccc(OCC(O)CNCc2c(C)nn(C)c2N(C)C)c1 (stereo not shown)	4.315%	-24.49%	-10.68%	17.65%	-1.097%
COc1cc(F)c(S(=O)(=O)N2CCN(C)Cc3ccccc32)cc1OC	-14.34%	-6.778%	2.063%	9.649%	0.9336%
Cc1ccccc1CNC(=O)Cn1ncc2c1c(C)nn2C	6.928%	-33%	-2.34%	15.52%	1.684%
CN(C)Cc1nc(C(C)(C)NC(=O)c2ccc3ccccc3c2)no1	2.314%	-4.86%	-14.89%	13.98%	2.72%
Cc1ccc(NCCCc2c(C)noc2C)nn1	10.14%	-3.333%	-4.673%	9.89%	1.54%
COc1ccc(OC)c(-n2nnnc2SCC2CCCN(C)C2)c1 (stereo not shown)	8.491%	0.1682%	-0.08573%	7.692%	-1.848%
Cc1cc(CS(=O)(=O)c2ccccc2)no1	7.991%	-33.82%	2.927%	20%	-1.008%
CC(C)c1nn(C)c(N(C)C)c1CNC(C)c1ccc2c(c1)OCO2 (stereo not shown)	0.3911%	-26.23%	-2.014%	13.16%	12.67%
Cc1ccccc1OCCC(=O)N(C)Cc1c(C)noc1C	3.361%	-30.98%	9.501%	17.95%	-5.832%
Cc1nc(C2CCCN(C(=O)c3cnn(C4CCCCC4)c3)C2)no1 (stereo not shown)	-5.362%	-	-10.83%	17.09%	2.555%
CCOCC(=O)Nc1ncn(Cc2cccc(Br)c2)n1	4.628%	-1.117%	2.282%	23.08%	13.5%
COc1cccc(COCC(=O)N2CCCC(c3cc(C)[nH]n3)C2)c1 (stereo not shown)	2.254%	-8.977%	8.198%	21.43%	-2.113%
CCc1ccc2occ(CC(=O)N3CCC4(CCCN(C)C4=O)C3)c2c1 (stereo not shown)	-0.4878%	-7.473%	-10.11%	14.4%	0%
COc1ccccc1-c1ncc(CN2CCC3(CCN(C)C3)CC2)cn1	-4.911%	-23.37%	2.247%	13.54%	-5.057%
CC(C)c1cc(NC(=O)CN2CCC(N3CCCCC3)CC2)on1	0.2635%	2.182%	2.483%	21.88%	-2.715%
Cc1nn(C)c2c(NCc3ccc(F)cc3)nc(C3CC3)nc12	6.544%	-37.32%	3.74%	14.16%	1.72%
COc1cccc(C(CO)NC(=O)Cc2cccc(C)c2)c1 (stereo not shown)	0.2141%	-18.13%	2.142%	5%	1.613%
COCCNC(=O)NCCn1nc(C(F)(F)F)n(C)c1=O	1.623%	-21.21%	-8.893%	11.57%	3.909%
CC(C)CC(NCc1cccs1)c1ccccn1 (stereo not shown)	6.796%	-8.325%	-8.983%	0%	-4.464%
CN(C)C(=O)Cc1nc(CN2CCn3c(nnc3C3CC3)C2)cs1	10.46%	-10.11%	16.84%	18.46%	0.4859%
CC(C)N1CCC(NC(=O)c2cn(-c3ccc(F)cc3)nn2)C1 (stereo not shown)	86.75% & 5.291%	-44.48%	2.602%	3.109%	-1.943%
c1cncc(-c2nccc(CN3CCC(N4CCCCC4)CC3)n2)c1	-0.6196%	-26.36%	-4.821%	0%	-
CN(C)c1ncc(C2Nc3ccccc3C3=NCCCN32)cn1 (stereo not shown)	3.09%	12.43%	-518.9%	-2.069%	-5.176%
CCC(CNC(=O)c1nc(=O)[nH][nH]1)Oc1cccc(F)c1 (stereo not shown)	15.89%	-24.84%	1.413%	16.44%	-0.5961%
Cn1ncc2c(N3CC(N4CCCCC4)C3)nc(-c3ccncc3)nc21	1.277%	-5.552%	-20.43%	12.99%	0.3708%
O=C(NC1CCCN(c2ccc(OC(F)F)cc2)C1)c1ccon1 (stereo not shown)	-	5.721%	2.06%	-2600%	-3.199%
O=C(c1ncccn1)N1C[C@H]2CCC[C@@]2(COCC2CCOCC2)C1	13.62%	-47.4%	5.523%	13.53%	-0.7846%
CCc1n[nH]c(C(=O)N2CCCC3(CN(C)C(=O)O3)C2)c1C (stereo not shown)	-4.225%	-18.63%	-2.721%	2.564%	-2.328%
Cc1csc(CN2CC(CO)Oc3ccccc32)n1 (stereo not shown)	8.779%	-7.216%	-1.752%	12.07%	27.15%
O=C(N1CCOCC1)N1C[C@H]2CN(Cc3nccs3)C[C@H]2C1	5.477%	-	9.343%	19.27%	-3.285%
c1cncc(COc2ccccc2CNC2CCc3ncnn3C2)c1 (stereo not shown)	-0.5263%	-4.281%	-9.667%	4.63%	-0.1337%
NC(=O)CN1CCC(NC2CCCCc3ccccc32)CC1 (stereo not shown)	6.341%	-12.41%	-6.677%	18.33%	10.53%
COCCNc1ccccc1CNC(=O)NCc1ccc(C)s1	-0.1248%	-4.768%	-5.023%	3.306%	2.658%
CN(C)C[C@@H]1CN(C(=O)CCC2CCCC2)C[C@@H]1CO	3.807%	-4.358%	-15.46%	17.65%	3.034%
COC(=O)C1CN(Cc2nc(C(C)(C)C)cs2)C[C@@H](C)O1 (stereo partly shown)	-6.226%	-8.98%	-3.08%	13.51%	-2.279%
CN1CCC(n2nc(Cc3cccc(Cl)c3)nc2Cn2ccnc2)CC1	-1.988%	-8.25%	3.167%	15.87%	5.45%

For reference, 5 entries once more:

| structure | CoaBC | Pks13 thioesterase | ClpP1P2 | LiHisRS | MtTrpRS |
|---|---|---|---|---|---|
| `CC(C)N1CCCCC1c1cc(CO)[nH]n1` (stereo not shown) | -7.359% | - | -10.07% | 7.246% | -6.911% |
| `CCc1cc(C(=O)N2CCc3nc4c(C)csc4c(=O)n3CC2)on1` | -1.942% | 5.608% | -6.278% | 21.74% | - |
| `NC(=O)CN1CCC(NC2CCCCc3ccccc32)CC1` (stereo not shown) | 6.341% | -12.41% | -6.677% | 18.33% | 10.53% |
| `COCC1CC2(CCN(Cc3ccco3)CC2)CN1C(C)C` (stereo not shown) | 0.4202% | -21.27% | 8.741% | 16.36% | -1.569% |
| `CN(C)C(=O)Cc1nc(CN2CCn3c(nnc3C3CC3)C2)cs1` | 10.46% | -10.11% | 16.84% | 18.46% | 0.4859% |

Source: ChEMBL document CHEMBL3988442, “University of Dundee, Small-Polar-MMV Screening Library” (2021).